# The other results are listed elsewhere or left out.
# By UniProt entry, the sequences of proteins in these tests, tags left out. Where a name states a change or a piece, a line headed by the entry shows the natural chain unless it says otherwise.
# UniProt Q9H8H0: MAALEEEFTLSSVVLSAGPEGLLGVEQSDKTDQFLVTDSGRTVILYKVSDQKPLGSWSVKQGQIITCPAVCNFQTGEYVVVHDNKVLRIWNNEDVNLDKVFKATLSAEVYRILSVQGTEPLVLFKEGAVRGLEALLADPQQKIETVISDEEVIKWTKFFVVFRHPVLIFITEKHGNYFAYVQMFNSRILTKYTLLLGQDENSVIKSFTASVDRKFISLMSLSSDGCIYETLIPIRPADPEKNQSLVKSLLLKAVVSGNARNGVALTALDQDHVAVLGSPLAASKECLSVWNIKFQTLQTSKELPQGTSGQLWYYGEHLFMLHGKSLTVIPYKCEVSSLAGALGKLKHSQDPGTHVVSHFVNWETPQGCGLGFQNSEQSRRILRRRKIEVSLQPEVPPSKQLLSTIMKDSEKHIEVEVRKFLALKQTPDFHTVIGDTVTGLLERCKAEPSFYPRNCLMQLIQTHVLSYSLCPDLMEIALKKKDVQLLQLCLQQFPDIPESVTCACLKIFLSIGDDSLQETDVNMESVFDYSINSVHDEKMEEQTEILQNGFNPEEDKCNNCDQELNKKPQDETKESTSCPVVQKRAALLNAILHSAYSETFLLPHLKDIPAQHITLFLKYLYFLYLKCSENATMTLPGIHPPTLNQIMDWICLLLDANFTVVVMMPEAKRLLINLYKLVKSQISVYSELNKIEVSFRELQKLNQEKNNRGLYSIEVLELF
# UniProt Q15738: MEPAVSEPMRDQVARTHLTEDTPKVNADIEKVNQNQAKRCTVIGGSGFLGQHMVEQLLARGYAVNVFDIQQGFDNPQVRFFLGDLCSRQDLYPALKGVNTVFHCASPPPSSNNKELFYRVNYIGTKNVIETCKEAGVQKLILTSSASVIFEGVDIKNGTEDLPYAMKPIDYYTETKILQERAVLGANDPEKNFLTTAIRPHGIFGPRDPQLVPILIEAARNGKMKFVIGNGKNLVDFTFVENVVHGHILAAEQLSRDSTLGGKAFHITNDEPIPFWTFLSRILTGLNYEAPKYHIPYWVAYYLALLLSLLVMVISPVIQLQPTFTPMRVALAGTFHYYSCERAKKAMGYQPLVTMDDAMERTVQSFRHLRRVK
# UniProt Q8NDH3: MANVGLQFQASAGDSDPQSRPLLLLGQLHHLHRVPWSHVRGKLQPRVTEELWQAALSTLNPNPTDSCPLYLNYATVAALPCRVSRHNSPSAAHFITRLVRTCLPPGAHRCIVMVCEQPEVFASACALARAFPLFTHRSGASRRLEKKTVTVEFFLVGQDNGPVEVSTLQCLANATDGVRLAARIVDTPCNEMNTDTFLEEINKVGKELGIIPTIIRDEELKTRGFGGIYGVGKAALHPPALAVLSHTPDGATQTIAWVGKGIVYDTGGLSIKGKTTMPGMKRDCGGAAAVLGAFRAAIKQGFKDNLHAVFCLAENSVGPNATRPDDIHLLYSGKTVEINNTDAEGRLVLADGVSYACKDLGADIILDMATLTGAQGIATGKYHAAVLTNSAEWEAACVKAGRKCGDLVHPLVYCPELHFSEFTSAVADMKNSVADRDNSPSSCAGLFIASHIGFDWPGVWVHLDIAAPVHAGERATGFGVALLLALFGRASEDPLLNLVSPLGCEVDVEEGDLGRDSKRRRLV
# UniProt Q9BZ95: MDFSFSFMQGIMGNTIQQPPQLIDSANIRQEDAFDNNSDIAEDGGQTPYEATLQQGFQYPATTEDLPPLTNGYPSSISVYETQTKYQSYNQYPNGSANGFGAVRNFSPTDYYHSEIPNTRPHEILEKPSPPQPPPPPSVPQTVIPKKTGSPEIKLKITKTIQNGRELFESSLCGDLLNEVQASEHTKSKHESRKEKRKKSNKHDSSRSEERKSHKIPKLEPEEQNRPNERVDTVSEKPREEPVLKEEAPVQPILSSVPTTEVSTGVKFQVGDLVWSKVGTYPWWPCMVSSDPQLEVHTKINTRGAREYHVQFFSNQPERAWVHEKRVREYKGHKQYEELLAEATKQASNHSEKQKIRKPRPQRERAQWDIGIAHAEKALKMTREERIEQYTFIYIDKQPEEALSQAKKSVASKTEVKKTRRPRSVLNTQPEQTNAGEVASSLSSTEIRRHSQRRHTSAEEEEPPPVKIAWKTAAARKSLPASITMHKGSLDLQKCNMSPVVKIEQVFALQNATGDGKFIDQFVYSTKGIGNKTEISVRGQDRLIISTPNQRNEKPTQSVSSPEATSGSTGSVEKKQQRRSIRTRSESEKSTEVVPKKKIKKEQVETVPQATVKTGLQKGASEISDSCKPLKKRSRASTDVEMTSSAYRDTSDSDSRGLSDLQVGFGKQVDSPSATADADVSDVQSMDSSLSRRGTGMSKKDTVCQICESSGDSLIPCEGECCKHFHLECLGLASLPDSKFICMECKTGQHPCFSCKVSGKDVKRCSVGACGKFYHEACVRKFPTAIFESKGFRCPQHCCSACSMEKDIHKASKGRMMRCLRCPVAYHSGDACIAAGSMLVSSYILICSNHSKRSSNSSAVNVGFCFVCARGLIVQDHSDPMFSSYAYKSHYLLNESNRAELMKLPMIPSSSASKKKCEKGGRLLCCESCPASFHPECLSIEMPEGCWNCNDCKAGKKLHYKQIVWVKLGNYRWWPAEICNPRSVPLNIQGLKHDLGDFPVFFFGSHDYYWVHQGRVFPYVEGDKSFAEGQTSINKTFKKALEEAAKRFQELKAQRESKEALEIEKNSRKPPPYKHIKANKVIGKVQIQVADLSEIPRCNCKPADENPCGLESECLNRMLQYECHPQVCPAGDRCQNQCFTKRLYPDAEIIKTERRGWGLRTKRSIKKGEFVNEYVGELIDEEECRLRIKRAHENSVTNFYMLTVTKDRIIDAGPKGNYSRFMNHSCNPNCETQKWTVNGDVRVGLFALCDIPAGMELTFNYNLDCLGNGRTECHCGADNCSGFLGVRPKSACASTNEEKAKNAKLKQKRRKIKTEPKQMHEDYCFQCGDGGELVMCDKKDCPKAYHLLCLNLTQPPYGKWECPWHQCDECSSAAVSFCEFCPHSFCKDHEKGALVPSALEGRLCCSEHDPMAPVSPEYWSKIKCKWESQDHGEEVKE
# UniProt Q13287: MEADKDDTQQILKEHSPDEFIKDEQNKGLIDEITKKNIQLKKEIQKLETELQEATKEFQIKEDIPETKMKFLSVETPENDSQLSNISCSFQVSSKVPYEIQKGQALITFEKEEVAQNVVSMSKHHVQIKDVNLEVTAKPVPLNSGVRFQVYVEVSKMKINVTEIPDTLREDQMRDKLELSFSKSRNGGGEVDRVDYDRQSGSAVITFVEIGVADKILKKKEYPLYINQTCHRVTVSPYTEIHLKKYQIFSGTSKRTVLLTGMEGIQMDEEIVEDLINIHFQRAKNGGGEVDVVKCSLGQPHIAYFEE
# UniProt Q9BYT8, whole entry, looked up: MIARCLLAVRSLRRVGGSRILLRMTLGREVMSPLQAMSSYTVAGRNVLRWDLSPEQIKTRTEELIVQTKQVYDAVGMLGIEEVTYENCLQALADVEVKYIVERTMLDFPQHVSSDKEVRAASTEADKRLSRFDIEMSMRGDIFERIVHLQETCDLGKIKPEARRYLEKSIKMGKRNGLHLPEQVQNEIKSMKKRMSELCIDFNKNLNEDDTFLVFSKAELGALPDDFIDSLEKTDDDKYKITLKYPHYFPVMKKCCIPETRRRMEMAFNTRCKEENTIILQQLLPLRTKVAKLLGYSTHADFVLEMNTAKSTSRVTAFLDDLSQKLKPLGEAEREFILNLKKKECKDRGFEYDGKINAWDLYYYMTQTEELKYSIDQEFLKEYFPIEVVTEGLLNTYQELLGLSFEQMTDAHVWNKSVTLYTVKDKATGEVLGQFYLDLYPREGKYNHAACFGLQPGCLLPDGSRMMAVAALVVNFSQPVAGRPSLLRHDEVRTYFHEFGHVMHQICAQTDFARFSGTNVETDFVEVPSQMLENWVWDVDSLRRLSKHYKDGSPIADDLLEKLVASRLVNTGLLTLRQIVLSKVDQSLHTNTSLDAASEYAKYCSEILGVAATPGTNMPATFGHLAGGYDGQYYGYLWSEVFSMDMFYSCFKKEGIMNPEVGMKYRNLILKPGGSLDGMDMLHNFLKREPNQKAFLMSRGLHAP
# UniProt Q16656: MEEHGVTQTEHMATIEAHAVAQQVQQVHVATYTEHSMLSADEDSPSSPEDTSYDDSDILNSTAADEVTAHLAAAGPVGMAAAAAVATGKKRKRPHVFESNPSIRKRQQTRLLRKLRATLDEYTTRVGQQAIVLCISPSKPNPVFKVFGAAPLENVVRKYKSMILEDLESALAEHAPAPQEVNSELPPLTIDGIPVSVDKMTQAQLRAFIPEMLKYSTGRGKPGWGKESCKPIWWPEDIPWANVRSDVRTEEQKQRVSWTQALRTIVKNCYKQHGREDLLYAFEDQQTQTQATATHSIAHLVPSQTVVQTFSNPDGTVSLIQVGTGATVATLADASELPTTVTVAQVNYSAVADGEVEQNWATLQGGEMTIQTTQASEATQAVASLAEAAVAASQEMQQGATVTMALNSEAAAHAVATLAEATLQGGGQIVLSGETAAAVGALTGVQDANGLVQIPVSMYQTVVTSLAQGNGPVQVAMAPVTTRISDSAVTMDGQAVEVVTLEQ
# UniProt Q8TAT6: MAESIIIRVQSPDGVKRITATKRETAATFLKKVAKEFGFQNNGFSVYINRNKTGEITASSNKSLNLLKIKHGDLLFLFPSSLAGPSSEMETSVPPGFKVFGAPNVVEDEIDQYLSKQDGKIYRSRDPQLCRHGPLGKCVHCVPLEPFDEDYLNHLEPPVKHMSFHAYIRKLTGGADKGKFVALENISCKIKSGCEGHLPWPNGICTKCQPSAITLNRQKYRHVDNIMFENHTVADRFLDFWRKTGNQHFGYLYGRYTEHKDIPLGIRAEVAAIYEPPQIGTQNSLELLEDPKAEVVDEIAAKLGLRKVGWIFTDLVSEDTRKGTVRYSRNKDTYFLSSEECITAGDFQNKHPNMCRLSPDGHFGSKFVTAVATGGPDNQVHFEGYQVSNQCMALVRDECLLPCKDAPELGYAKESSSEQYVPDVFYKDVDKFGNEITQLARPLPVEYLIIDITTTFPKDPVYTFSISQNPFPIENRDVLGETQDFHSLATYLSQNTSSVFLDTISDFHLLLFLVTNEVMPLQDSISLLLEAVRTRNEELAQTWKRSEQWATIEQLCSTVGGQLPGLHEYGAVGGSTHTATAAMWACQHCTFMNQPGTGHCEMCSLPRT
# UniProt P61916: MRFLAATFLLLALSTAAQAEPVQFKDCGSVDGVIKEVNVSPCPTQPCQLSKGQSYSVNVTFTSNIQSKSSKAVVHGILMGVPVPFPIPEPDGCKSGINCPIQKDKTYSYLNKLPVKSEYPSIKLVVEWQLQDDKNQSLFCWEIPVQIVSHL
# UniProt Q96MF7: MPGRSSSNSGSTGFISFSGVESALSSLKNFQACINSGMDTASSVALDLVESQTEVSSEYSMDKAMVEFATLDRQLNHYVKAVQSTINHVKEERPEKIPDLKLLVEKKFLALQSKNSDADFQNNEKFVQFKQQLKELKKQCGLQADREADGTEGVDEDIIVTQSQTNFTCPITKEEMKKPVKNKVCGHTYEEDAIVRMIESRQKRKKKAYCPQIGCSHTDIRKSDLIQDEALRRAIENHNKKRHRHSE
# UniProt O15226: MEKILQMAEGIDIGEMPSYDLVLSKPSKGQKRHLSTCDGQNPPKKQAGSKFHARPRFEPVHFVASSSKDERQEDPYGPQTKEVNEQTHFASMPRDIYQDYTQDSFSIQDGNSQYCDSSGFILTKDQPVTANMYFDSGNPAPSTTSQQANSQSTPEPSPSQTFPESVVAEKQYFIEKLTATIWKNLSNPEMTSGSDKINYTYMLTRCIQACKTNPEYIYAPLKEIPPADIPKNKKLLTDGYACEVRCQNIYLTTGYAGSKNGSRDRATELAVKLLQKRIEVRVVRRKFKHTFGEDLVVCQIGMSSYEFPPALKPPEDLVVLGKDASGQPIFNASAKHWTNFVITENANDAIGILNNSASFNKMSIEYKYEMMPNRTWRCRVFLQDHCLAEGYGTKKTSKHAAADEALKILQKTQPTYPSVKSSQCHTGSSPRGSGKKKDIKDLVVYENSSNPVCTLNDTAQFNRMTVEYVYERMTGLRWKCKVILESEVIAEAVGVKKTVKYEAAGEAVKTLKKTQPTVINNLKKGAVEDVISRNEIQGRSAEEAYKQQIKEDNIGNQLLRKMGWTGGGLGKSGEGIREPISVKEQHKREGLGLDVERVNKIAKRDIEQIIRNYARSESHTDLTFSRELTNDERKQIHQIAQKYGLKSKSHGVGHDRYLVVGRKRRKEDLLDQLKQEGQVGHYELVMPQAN
# Compound: CC1Cc2ccccc2N1C(=O)C1CCCN(C1)C(=O)CCl (mixture of isomers) [TRIM25 ligand 11 (diastereomer mixture)]
# Experiment: probe-labelled cysteine peptide fold change vs DMSO (competition) (log2 fold change); higher = less target engagement (more negative = stronger competition)
# Conditions: 10 µM; THP-1; incubation time: 4 h
# 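Also: competitive chemoproteomic profiling in live THP-1 cells with an iodoacetamide desthiobiotin (IA-DTB) probe, comparing probe-labelled peptide intensities in compound-treated cells against DMSO-treated controls.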
row,Target,probe-labelled cysteine peptide fold change
1,NOB1_Q9ULX3_147_GHSACEPENLEFSSFMFWR (UniProt Q9ULX3),-0.0264
2,NOL11_Q9H8H0_578_ESTSCPVVQK (UniProt Q9H8H0),-0.00732
3,NSDHL_Q15738_132_NVIETCK (UniProt Q15738),0.0723
4,NOL10_Q9BSC4_55_RIELIQDFEMPTVCTTIK (UniProt Q9BSC4),-0.0742
5,NOP58_Q9Y2X3_139_EMAAMCLGLAHSLSR (UniProt Q9Y2X3),-0.0315
6,NPEPL1_Q8NDH3_404+414_CGDLVHPLVYCPELHFSEFTSAVADMK (UniProt Q8NDH3),-0.0205
7,NSD3_Q9BZ95_173_ELFESSLCGDLLNEVQASEHTK (UniProt Q9BZ95),0.000136
8,NSD3_Q9BZ95_729_HFHLECLGLASLPDSK (UniProt Q9BZ95),0.0205
9,NOL11_Q9H8H0_286_ECLSVWNIK (UniProt Q9H8H0),0.0424
10,NSUN5_Q96P11_278+279_AGVSCCELAEEDFLAVSPSDPR (UniProt Q96P11),0.234
11,NLE1_Q9NVX2_251_ILTGHTQSVTCLR (UniProt Q9NVX2),0.085
12,NMI_Q13287_295_CSLGQPHIAYFEE (UniProt Q13287),-0.0717
13,NLN_Q9BYT8_458_YNHAACFGLQPGCLLPDGSR (UniProt Q9BYT8),0.0507
14,NRF1_Q16656_134_VGQQAIVLCISPSKPNPVFK (UniProt Q16656),-0.088
15,NONO_Q15233_208_CSEGSFLLTTFPRPVTVEPMDQLDDEEGLPEK (UniProt Q15233),0.0254
16,NSDHL_Q15738_40_CTVIGGSGFLGQHMVEQLLAR (UniProt Q15738),0.0458
17,NPLOC4_Q8TAT6_130_SRDPQLCR (UniProt Q8TAT6),-0.0465
18,NPC2_P61916_42+47_EVNVSPCPTQPCQLSK (UniProt P61916),0.13

# Two entries picked at random from those above:
row,Target,probe-labelled cysteine peptide fold change
12,NMI_Q13287_295_CSLGQPHIAYFEE (UniProt Q13287),-0.0717
16,NSDHL_Q15738_40_CTVIGGSGFLGQHMVEQLLAR (UniProt Q15738),0.0458

# (continued)

row,Target,probe-labelled cysteine peptide fold change
1,NLN_Q9BYT8_507_TYFHEFGHVMHQICAQTDFAR (UniProt Q9BYT8),-0.0323
2,NSF_P46459_91_QCIGTMTIEIDFLQK (UniProt P46459),0.0636
3,NSMCE2_Q96MF7_210+215_AYCPQIGCSHTDIR (UniProt Q96MF7),0.0981
4,NPC2_P61916_27_DCGSVDGVIK (UniProt P61916),0.0241
5,NKRF_O15226_386_VFLQDHCLAEGYGTKK (UniProt O15226),-0.274
6,NSD2_O96028_1245_CGDGGQLVLCDR (UniProt O96028),-0.171
7,NSD3_Q9BZ95_495_CNMSPVVK (UniProt Q9BZ95),-0.201
8,NOP9_Q86U38_141_CGVHVLQSALLQLPR (UniProt Q86U38),0.0871
9,NKTR_P30414_173_VIDCGVLATK (UniProt P30414),-0.279
10,NMT1_P30419_483_CPSMGAEK (UniProt P30419),-0.141
11,NMD3_Q96D46_214+218_MVEFLQCTVPCR (UniProt Q96D46),-0.0897
12,NT5C2_P49902_433_VTHDMDMCYGMMGSLFR (UniProt P49902),0.038
13,NKRF_O15226_453_DLVVYENSSNPVCTLNDTAQFNR (UniProt O15226),0.21
14,NSDHL_Q15738_104_GVNTVFHCASPPPSSNNK (UniProt Q15738),-0.0444
15,NPEPPSL1_A6NEC2_339_NSCSSSR (UniProt A6NEC2),0.0136
16,NOL8_Q76FK4_517_SDGPETTTQCK (UniProt Q76FK4),-0.0163
17,NLRX1_Q86UT6_481_FFLAPCVEPGR (UniProt Q86UT6),0.302
